The text below walks through data of PMC8699279, “Exercise-Induced Irisin Decreases Inflammation and Improves NAFLD by Competitive Binding with MD2” (Cells, 2021).

The chains behind the UniProt entries cited, without tags or fusion partners. Residues count along the entry.
UniProt Q9QUK6, residues 26-835: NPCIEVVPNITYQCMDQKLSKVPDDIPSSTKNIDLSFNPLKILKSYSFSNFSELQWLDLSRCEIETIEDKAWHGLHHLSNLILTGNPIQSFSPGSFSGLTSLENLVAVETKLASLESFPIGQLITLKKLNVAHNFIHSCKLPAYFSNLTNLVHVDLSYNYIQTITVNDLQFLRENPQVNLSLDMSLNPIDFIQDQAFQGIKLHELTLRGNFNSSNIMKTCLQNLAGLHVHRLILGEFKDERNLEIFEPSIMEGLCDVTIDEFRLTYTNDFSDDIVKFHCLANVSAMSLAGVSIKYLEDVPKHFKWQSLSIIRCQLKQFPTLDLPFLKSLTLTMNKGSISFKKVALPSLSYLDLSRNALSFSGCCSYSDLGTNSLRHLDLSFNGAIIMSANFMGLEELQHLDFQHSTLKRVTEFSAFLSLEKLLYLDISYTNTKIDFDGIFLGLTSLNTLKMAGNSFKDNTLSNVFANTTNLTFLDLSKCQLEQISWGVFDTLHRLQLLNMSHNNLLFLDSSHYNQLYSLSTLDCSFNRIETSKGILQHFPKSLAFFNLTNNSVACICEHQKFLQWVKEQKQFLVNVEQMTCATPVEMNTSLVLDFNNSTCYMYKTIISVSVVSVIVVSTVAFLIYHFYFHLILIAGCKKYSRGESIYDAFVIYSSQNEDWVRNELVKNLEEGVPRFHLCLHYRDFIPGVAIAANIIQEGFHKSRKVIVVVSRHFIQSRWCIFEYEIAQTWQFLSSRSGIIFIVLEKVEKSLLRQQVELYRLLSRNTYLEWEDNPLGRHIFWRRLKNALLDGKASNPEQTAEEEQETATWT

These are yes or no findings as the source states them, for the method shown. For part of these data: Binding seen in cells or lysates may run through a third protein. Some binding calls cover weakened binding; strength is not graded here.

The target of test [1] is toll-like receptor 4 (endogenous, mouse) (mouse (endogenous in C57BL/6 liver and AML12 cells)) (UniProt Q9QUK6). As to the kind of experiment: ELISA; anti-TLR4 coated on plates; liver lysates (200 μg/mL) captured; rhMD2 mixed with irisin (0.1, 0.2 and 0.5 μg/mL) added for 2 h at room temperature; detected with anti-MD2; only the binder purified. (In general: In an ELISA, binding on a coated surface is turned into a signal by an enzyme label.)

Test [2] has the same target. In words: co-IP; AML12 cell lysates; cells pretreated with recombinant irisin (50 or 100 ng/mL) for 30 min, then 200 μM PA for 2 h.
For test [3] the target is unchanged. In words: co-IP; mouse liver tissue lysates (RIPA) of NCD, HFD and HFD + exercise mice; precipitating antibody overnight at 4 °C, protein A/G agarose, Western blot. In general terms: In western blotting, separated proteins are transferred to a membrane and probed.

B1: recombinant human MD2 (protein, UniProt Q9Y6Y9 19-160)
chain: QKQYWVCNSSDASISYTYCDKMQYPISINVNPCIELKRSKGLLHIFYIPRRDLKQLYFNLYITVNTMNLPKRKEVICRGSDDDYSFCRALKGETVNTTISFSFKGIKFSKGKYKCVVEAISGSPEEMLFCLEFVILHQPNSN
Take B1: the binding result in test [1] is reported as “binds”.

B2: MD2 (endogenous, mouse) (protein, UniProt Q9JHF9 19-160)
chain: EKQQWFCNSSDAIISYSYCDHLKFPISISSEPCIRLRGTNGFVHVEFIPRGNLKYLYFNLFISVNSIELPKRKEVLCHGHDDDYSFCRALKGETVNTSIPFSFEGILFPKGHYRCVAEAIAGDTEEKLFCLNFTIIHRRDVN
On to B2, for which the binding result in test [2] and in test [3] was “binds” throughout.
